Source: patent US20210054055A1
No constants are given. Whether binding was seen depends on the method and setting. Some entries that bind do so weakly or less than the wild type.

What was measured:
[1] = biological target: ZVEDI, recombinant ZIKV E domain I (Zika virus); test: ELISA on recombinant ZVEDI
[2] = biological target: ZVEDI, recombinant ZIKV E domain I (Zika virus); test: ELISA on recombinant antigens
[3] = biological target: ZVEDI, recombinant ZIKV E domain I (Zika virus); test: ELISA on recombinant ZIKV antigens (FIG. 9)

Measured: binding

B1: Anti-ZIKV clone DT168(A)-D1_A-9E (A9E) (antibody, V domains shown)
VH: EVQLLESGGGLVQAGGSLRLSCAASGFTFDTYAMSWVRQPPGKGLEWVSAISTGGGSKYYADSVKGRLTISRDNSQNTLYLQMSSLRADDTAVYYCARSDFWRSGRYYYYMDVWGRGTTVTVSS
VL: QSALTQPASVSASPGQSITISCTGTHFDIVDYDYLSWYQQHPGNAPKLLIYGVSNRPSGVSSRFSGSKSGNTASLTISGLQAEDEGDYYCSSYSISSTLLVFGGGTKLSV
binds: [1] | [2] | [3]
